# Assay results: the supplement of paper PMC4604168 (melanoma cell lines)
# Some of the results follow. Single values are uncertain, as repeats are few or missing.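 Cells were imaged in 1,536-well plates, and nuclei stained with an antibody against cleaved PARP were counted against all DNA-stained nuclei to give the apoptosis fraction. Screening doses were chosen to leave most cells alive, and resting and induced cleaved-PARP levels differ strongly between cell lines.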
# Test system: IPC-298
# Test: cleaved PARP positive nuclei fraction relative to DMSO control; melanoma cells; higher = more apoptosis
# Details: library dose: low library concentration; 72 h
row,SMILES,cleaved PARP positive nuclei fraction [%]
1,"Cc1cn(-c2cc(NC(=O)c3ccc(C)c(Nc4nccc(-c5cccnc5)n4)c3)cc(C(F)(F)F)c2)cn1 [nilotinib] + CN(c1ncccc1CNc1nc(Nc2ccc3c(c2)CC(=O)N3)ncc1C(F)(F)F)S(C)(=O)=O [PF562271] (first compound 0.2 µM, partner dose 0.08 µM)",41.4
2,"CC[C@]1(O)C[C@H]2CN(CCc3c([nH]c4ccccc34)[C@@](C(=O)OC)(c3cc4c(cc3OC)N(C=O)[C@H]3[C@@](O)(C(=O)OC)[C@H](OC(C)=O)[C@]5(CC)C=CCN6CC[C@]43[C@@H]65)C2)C1 [vincristine] + COCC[n+]1c2c(n(Cc3cnccn3)c1C)C(=O)c1ccccc1C2=O [YM155] (first compound 0.0001 µM, partner dose 0.0004 µM)",136
3,"Cc1cn(-c2cc(NC(=O)c3ccc(C)c(Nc4nccc(-c5cccnc5)n4)c3)cc(C(F)(F)F)c2)cn1 [nilotinib] + O=C(O)[C@@H]1[O][Sb](=[O])([O][Sb]2(=[O])[O][C@H]([C@H](O)CO)[C@H](O)[C@H](C(=O)O)[O]2)[O][C@H]([C@H](O)CO)[C@@H]1O [stibogluconate] (first compound 0.2 µM, partner dose 2 µM)",88.2
4,"COc1cc([C@@H]2c3cc4c(cc3[C@@H](O[C@@H]3O[C@@H]5CO[C@@H](C)O[C@H]5[C@H](O)[C@H]3O)[C@H]3COC(=O)[C@H]23)OCO4)cc(OC)c1O [etoposide] + CCCCCCCCCCCCCCCCCCOP(=O)([O-])OC1CC[N+](C)(C)CC1 [Perifosine] (first compound 0.02 µM, partner dose 0.4 µM)",129
5,"O=C(/C=C/c1cccnc1)NCCCCC1CCN(C(=O)c2ccccc2)CC1 + CS(=O)(=O)c1ccc(C(=O)Nc2ccc(Cl)c(-c3ccccn3)c2)c(Cl)c1 [vismodegib] (first compound 0.01 µM, partner dose 1 µM)",458
6,"O=C(Nc1cc(C(F)(F)F)cc(C(F)(F)F)c1)c1cc(Cl)ccc1O + CCCCCCCCc1ccc(CCC(N)(CO)CO)cc1 [fingolimod] (first compound 0.016 µM, partner dose 2 µM)",88.4
7,"CC[C@]1(O)C[C@H]2CN(CCc3c([nH]c4ccccc34)[C@@](C(=O)OC)(c3cc4c(cc3OC)N(C=O)[C@H]3[C@@](O)(C(=O)OC)[C@H](OC(C)=O)[C@]5(CC)C=CCN6CC[C@]43[C@@H]65)C2)C1 [vincristine] + CCCCCCCCCCCCCCCCCCOP(=O)([O-])OC1CC[N+](C)(C)CC1 [Perifosine] (first compound 0.0001 µM, partner dose 0.4 µM)",130
8,"Cc1cc(Nc2cc(N3CCN(C)CC3)nc(Sc3ccc(NC(=O)C4CC4)cc3)n2)n[nH]1 [Tozasertib] + C#Cc1cccc(Nc2ncnc3cc(OCCOC)c(OCCOC)cc23)c1 [erlotinib] (first compound 0.006 µM, partner dose 0.8 µM)",157
9,"Cc1cc(Nc2cc(N3CCN(C)CC3)nc(Sc3ccc(NC(=O)C4CC4)cc3)n2)n[nH]1 [Tozasertib] + CO[C@H]1C[C@@H]2CC[C@@H](C)[C@@](O)(O2)C(=O)C(=O)N2CCCC[C@H]2C(=O)O[C@H]([C@H](C)C[C@@H]2CC[C@@H](OCCO)[C@H](OC)C2)CC(=O)[C@H](C)/C=C(\C)[C@@H](O)[C@@H](OC)C(=O)[C@H](C)C[C@H](C)/C=C/C=C/C=C/1C [everolimus] (first compound 0.006 µM, partner dose 0.02 µM)",110
10,"Cc1ccc(Nc2nccc(N(C)c3ccc4c(C)n(C)nc4c3)n2)cc1S(N)(=O)=O [Pazopanib] + C#Cc1cccc(Nc2ncnc3cc(OCCOC)c(OCCOC)cc23)c1 [erlotinib] (first compound 0.4 µM, partner dose 0.8 µM)",115
11,"CCCCCCCCCCCCCCCCCCOP(=O)([O-])OC1CC[N+](C)(C)CC1 [Perifosine] + C=C(c1ccc(C(=O)O)cc1)c1cc2c(cc1C)C(C)(C)CCC2(C)C [Bexarotene] (first compound 0.4 µM, partner dose 2 µM)",111
12,"O=c1[nH]nc(Sc2ncc([N+](=O)[O-])s2)n1-c1ccc2c(c1)OCCO2 + Cc1cc(Nc2cc(N3CCN(C)CC3)nc(/C=C/c3ccccc3)n2)n[nH]1 [ENMD2076] (first compound 0.2 µM, partner dose 0.04 µM)",27.3
13,"CCCCCCCCCCCCCCCCCCOP(=O)([O-])OC1CC[N+](C)(C)CC1 [Perifosine] + Clc1ccc(Nc2nnc(Cc3ccncc3)c3ccccc23)cc1 [vatalanib] (first compound 0.4 µM, partner dose 2 µM)",92.1
14,"Cc1cn(-c2cc(NC(=O)c3ccc(C)c(Nc4nccc(-c5cccnc5)n4)c3)cc(C(F)(F)F)c2)cn1 [nilotinib] + Cn1nnc2c(C(N)=O)ncn2c1=O [temozolomide] (first compound 0.2 µM, partner dose 2 µM)",46.2

# Looked up one by one from the entries so far (two):
row,SMILES,cleaved PARP positive nuclei fraction [%]
12,"O=c1[nH]nc(Sc2ncc([N+](=O)[O-])s2)n1-c1ccc2c(c1)OCCO2 + Cc1cc(Nc2cc(N3CCN(C)CC3)nc(/C=C/c3ccccc3)n2)n[nH]1 [ENMD2076] (first compound 0.2 µM, partner dose 0.04 µM)",27.3
4,"COc1cc([C@@H]2c3cc4c(cc3[C@@H](O[C@@H]3O[C@@H]5CO[C@@H](C)O[C@H]5[C@H](O)[C@H]3O)[C@H]3COC(=O)[C@H]23)OCO4)cc(OC)c1O [etoposide] + CCCCCCCCCCCCCCCCCCOP(=O)([O-])OC1CC[N+](C)(C)CC1 [Perifosine] (first compound 0.02 µM, partner dose 0.4 µM)",129
